Source: article PMC6880422
The exact form of at least one protein or probe is not confirmed. Where a protein sequence is shown, tags need not be part of it.

What was measured:
[1] = molecular target: T1, His6-PhoP (Saccharopolyspora erythraea) (UniProt A4FQ02); test: EMSA; conditions: EMSA: 10 mM Tris-HCl pH 8.0, 25 mM MgCl2, 50 mM NaCl, 1 mM DTT, 1 mM EDTA, 0.01% NP-40, 50 ug/mL poly[d(I-C)], 10% glycerol, 25 C, 20 min, recombinant protein, protein details: His6, label: biotin (universal primer S10), probe letters rebuilt from the primers and the genome
T1 sequence (looked up, limits assumed): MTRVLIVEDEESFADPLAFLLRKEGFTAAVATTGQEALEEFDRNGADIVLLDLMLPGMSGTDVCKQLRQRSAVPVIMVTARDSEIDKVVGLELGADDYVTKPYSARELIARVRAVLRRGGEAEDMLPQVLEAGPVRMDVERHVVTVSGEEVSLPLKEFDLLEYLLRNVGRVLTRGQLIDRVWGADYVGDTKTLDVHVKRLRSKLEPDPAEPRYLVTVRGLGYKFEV

[2] = molecular target: T1, His6-PhoP (Saccharopolyspora erythraea); test: DNase I footprinting; conditions: 4.8 ug PhoP, 200 ng probe in 40 uL; footprinting: Beyotime EMSA buffer, 25 C, 30 min; recombinant protein; protein details: His6; label: FAM (Methods also say biotin-labeled); probe letters rebuilt from the primers and the genome

AGCCAGTGGCGATAAGATAGCGCGGAGCTTGCCGCCCAGCGCCTTGGCGTAGTCGCCCATGTGGCGTTTCTCCGTTTCATTCGCCCCGTCAGCCGATACCGGATGCCGAGGAGGCAAGTTCAGATCGATACGGAGAGTAATGTTCGCTCGCGAGCGTCACCAGGTCAAGTTGGTCTTCGTTCGCAGGGGGGCGAGTACCACCACACCACCCGGACGATTGACCCGCACGCATTGATAGCGTACAACGCGGGCCCGGCGGACACCCTGCGGTGCGGCTTTCACCAGCGGCACCGGCGCGGATCCTCCCGTCGCGGAACACCCGTCCTCACCAGCCGGCCGACAGCCGTCGGGAGAGGACCCCTTATCGCCACTGGCT (double strand) [PbldD]
binding result ([1]; 1 uM PhoP, 200-fold excess sperm DNA): binds

AGCCAGTGGCGATAAGATAGCGCGGAGCTTGCCGCCCAGCGCCTTGGCGTAGTCGCCCATGTGGCGTTTCTCCGTTTCATTCGCCCCGTCAGCCGATACCGGATGCCGAGGAGGCAAGTTCAGATCGATACGGAGAGTAATGTTCGCTCGCGAGCGTCACCAGGTCAAGTTGGTCTTCGTTCGCAGGGGGGCGAGTACCACCACACCACCCGGACGATTGACCCGCACGCATTGATAGCGTACAACGCGGGCCCGGCGGACACCCTGCGGTGCGGCTTTCACCAGCGGCACCGGCGCGGATCCTCCCGTCGCGGAACACCCGTCCTCACCAGCCGGCCGACAGCCGTCGGGAGAGGACCCCTTATCGCCACTGGCT (double strand) [bldD promoter footprinting probe]
binding result [2]: binds

AGCCAGTGGCGATAAGCGAACACAAAGCACCAGGCCGGGTCGAAGACGTCCCGGCGCCCTACACCAGTCTGCGTTGCAGCGACTGCGGATGGATCGAGAAGAACTCACGCAAGAGCCAAGCTGAGTTCGTCTGCGTGTCCTGCGGTTTCACCTGCAACGCTGACCTGAACGCCTCGATCAACGTCGCGGCAGGACATGCCGGAGGGACAACAACGACCCCTGGTCGTTCACGTGTCCGTGAACCTCAACTCGCCCTCCGGTGAGTTGGAATCCCCCGCCTCCAGGCGAGGGAGGATGTCAAATCCAGAAGACACCGGTGGTCTTCGACGGGGAGCTGACGCTGCTGCCCATGGGGCAGTACCTGCACCTTATCGCCACTGGCT (double strand) [sace_0712 promoter]
binding result ([1]; 0.2-0.8 uM PhoP, poly[d(I-C)]): binds
